PubChem BioAssay AID493246, Drosophila RNAi Screening Center – 2011
Aim: 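Genes fly cells need to grow and stay alive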 (primary screen). Cell system: Drosophila Kc and S2R+ cells. Knock-down reagent: long dsRNA against Drosophila genes. Detection: 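Raw, unnormalised count of remaining cells in each well; per-plate z-scores of cell number underlie the calls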. Scale: Kc cell number and S2R+ cell number: higher = more cells remaining. Hit rule: 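Active when the per-plate z-score of cell number is 3 or more in the direction of fewer cells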.
In all, the deposit lists about 21,000 reagents; below is a random part of those that have a named target and a result. In the full data, 429 (2%) were called active. 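Values are raw and not normalised between plates; calls rest on per-plate z-scores that were not deposited.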 Reagents against one gene are numbered here. Names joined by + are all predicted targets of the reagent. The record does not give: the amount of reagent, the time to read-out.

| Gene | reagent no. | Kc cell number, rep 1 | Kc cell number, rep 2 | S2R+ cell number, rep 1 | S2R+ cell number, rep 2 | Outcome |
| --- | --- | --- | --- | --- | --- | --- |
| Idgf6 (GeneID 36868) | 1 | 1.46e6 | 1.50e6 | 1.08e6 | 1.23e6 | inactive |
| Rcd1 (GeneID 36560) | 1 | 1.20e6 | 1.31e6 | 1.01e6 | 1.09e6 | inactive |
| CG11586 (GeneID 38520) | 1 | 1.55e6 | 1.59e6 | 1.26e6 | 1.22e6 | inactive |
| Psi (GeneID 36889) | 1 | 1.78e6 | 1.77e6 | 1.20e6 | 1.29e6 | inactive |
| CG11426 (GeneID 40471) | 1 | 1.76e6 | 2.09e6 | 1.21e6 | 1.37e6 | inactive |
| Ctf4 (GeneID 36551) | 1 | 1.38e6 | 1.54e6 | 9.74e5 | 1.23e6 | inactive |
| gus (GeneID 35478) | 1 | 1.41e6 | 1.49e6 | 1.20e6 | 1.11e6 | inactive |
| gus (GeneID 35478) | 2 | 1.19e6 | 1.37e6 | 1.04e6 | 1.06e6 | inactive |
| CG16863 (GeneID 34784) | 1 | 1.41e6 | 1.51e6 | 1.22e6 | 1.40e6 | inactive |
| robls54B (GeneID 5740248) | 1 | 5.20e5 | – | 7.67e5 | – | inactive |
| CG42233 (GeneID 43754) | 1 | 1.56e6 | 1.49e6 | 9.56e5 | 1.11e6 | inactive |
| CG42233 (GeneID 43754) | 2 | 1.49e6 | 1.47e6 | 1.01e6 | 1.08e6 | inactive |
| Arl5 (GeneID 38931) | 1 | 1.33e6 | 1.44e6 | 1.25e6 | 1.18e6 | inactive |
| CG12902 (GeneID 36092) | 1 | 1.48e6 | 1.56e6 | 1.30e6 | 1.37e6 | inactive |
| SA2 (GeneID 38167) | 1 | 1.64e6 | 1.70e6 | 1.05e6 | 1.50e6 | inactive |
| CG15258 (GeneID 34904) | 1 | 1.55e6 | 1.73e6 | 1.18e6 | 1.28e6 | inactive |
| CG31156 (GeneID 42669) | 1 | 1.59e6 | 1.62e6 | 1.17e6 | 1.21e6 | inactive |
| CG31156 (GeneID 42669) | 2 | 1.64e6 | 1.67e6 | 9.60e5 | 1.15e6 | inactive |
| CG17780 + CG17781 | 1 | 1.51e6 | 1.64e6 | 1.03e6 | 1.09e6 | inactive |
| CG15891 + CG15892 | 1 | 5.58e5 | – | 8.67e5 | – | inactive |
| CG15891 + CG15892 | 2 | 1.51e6 | 1.48e6 | 1.05e6 | 1.17e6 | inactive |
| CG34450 (GeneID 5740775) | 1 | 6.38e5 | – | 9.55e5 | – | inactive |

Entries listed so far whose gene name starts with G or g:
| Gene | reagent no. | Kc cell number, rep 1 | Kc cell number, rep 2 | S2R+ cell number, rep 1 | S2R+ cell number, rep 2 | Outcome |
| --- | --- | --- | --- | --- | --- | --- |
| gus (GeneID 35478) | 1 | 1.41e6 | 1.49e6 | 1.20e6 | 1.11e6 | inactive |
| gus (GeneID 35478) | 2 | 1.19e6 | 1.37e6 | 1.04e6 | 1.06e6 | inactive |

The results go on:
| Gene | reagent no. | Kc cell number, rep 1 | Kc cell number, rep 2 | S2R+ cell number, rep 1 | S2R+ cell number, rep 2 | Outcome |
| --- | --- | --- | --- | --- | --- | --- |
| Miga (GeneID 31775) | 1 | 1.68e6 | 1.61e6 | 1.07e6 | 1.20e6 | inactive |
| Brf (GeneID 42087) | 1 | 1.76e6 | 1.75e6 | 1.07e6 | 1.15e6 | inactive |
| Brf (GeneID 42087) | 2 | 1.34e6 | 1.44e6 | 1.16e6 | 1.28e6 | inactive |
| Brf (GeneID 42087) | 3 | 1.27e6 | 1.31e6 | 1.21e6 | 1.30e6 | inactive |
| Ccdc58 (GeneID 40159) | 1 | 1.47e6 | 1.54e6 | 1.24e6 | 1.25e6 | inactive |
| aly (GeneID 45960) | 1 | 1.44e6 | 1.35e6 | 1.17e6 | 1.35e6 | inactive |
| Irp-1A (GeneID 42689) | 1 | 1.33e6 | 1.33e6 | 1.14e6 | 1.26e6 | inactive |
| Tom7 (GeneID 35899) | 1 | 1.44e6 | 1.51e6 | 9.45e5 | 1.10e6 | inactive |
| Tom7 (GeneID 35899) | 2 | 1.44e6 | 1.48e6 | 1.27e6 | 1.36e6 | inactive |
| Or24a (GeneID 33623) | 1 | 1.60e6 | 1.62e6 | 1.06e6 | 1.28e6 | inactive |
| Tango9 (GeneID 41450) | 1 | 1.55e6 | 1.66e6 | 1.24e6 | 1.30e6 | inactive |
| Rop (GeneID 38493) | 1 | 1.29e6 | 1.36e6 | 1.20e6 | 1.16e6 | inactive |
| pico (GeneID 33003) | 1 | 1.50e6 | 1.50e6 | 9.96e5 | 1.17e6 | inactive |
| CG5174 (GeneID 37117) | 1 | 1.46e6 | 1.51e6 | 1.14e6 | 1.17e6 | inactive |
| CG6324 (GeneID 32481) | 1 | 1.43e6 | 1.45e6 | 1.04e6 | 1.16e6 | inactive |
| mon2 (GeneID 326157) | 1 | 1.54e6 | 1.57e6 | 1.11e6 | 1.22e6 | inactive |
| sicily (GeneID 32151) | 1 | 1.60e6 | 1.62e6 | 1.07e6 | 1.21e6 | inactive |
| CG10914 (GeneID 37075) | 1 | 1.55e6 | 1.61e6 | 1.12e6 | 1.24e6 | inactive |
